Test results published in article PMC11367503, “Exploring galectin interactions with human milk oligosaccharides and blood group antigens identifies BGA6 as a functional galectin-4 ligand” (The Journal of Biological Chemistry, 2024).
No constants are given. Whether binding was seen depends on the method and setting. Some results given as binding are weak or reduced against the parent protein; the word gives no strength.

Protein sequences, listed by entry. Tags and fused reporters are not part of them.
UniProt P47929: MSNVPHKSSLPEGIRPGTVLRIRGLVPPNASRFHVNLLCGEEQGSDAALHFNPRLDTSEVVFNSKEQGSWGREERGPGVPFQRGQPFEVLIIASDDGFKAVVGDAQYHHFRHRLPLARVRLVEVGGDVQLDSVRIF
UniProt P09382: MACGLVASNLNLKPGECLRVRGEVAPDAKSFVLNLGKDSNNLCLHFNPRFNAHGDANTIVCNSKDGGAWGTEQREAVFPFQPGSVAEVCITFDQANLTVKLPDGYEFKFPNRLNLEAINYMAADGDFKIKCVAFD
UniProt P17931: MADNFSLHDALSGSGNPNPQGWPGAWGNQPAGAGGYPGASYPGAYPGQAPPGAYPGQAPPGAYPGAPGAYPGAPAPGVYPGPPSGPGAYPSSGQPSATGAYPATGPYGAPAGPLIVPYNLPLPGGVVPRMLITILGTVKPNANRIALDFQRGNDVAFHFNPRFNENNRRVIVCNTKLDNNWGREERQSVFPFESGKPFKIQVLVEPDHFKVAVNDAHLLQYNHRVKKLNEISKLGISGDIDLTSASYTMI

T1: asialofetuin (UniProt P12763)
T1 sequence: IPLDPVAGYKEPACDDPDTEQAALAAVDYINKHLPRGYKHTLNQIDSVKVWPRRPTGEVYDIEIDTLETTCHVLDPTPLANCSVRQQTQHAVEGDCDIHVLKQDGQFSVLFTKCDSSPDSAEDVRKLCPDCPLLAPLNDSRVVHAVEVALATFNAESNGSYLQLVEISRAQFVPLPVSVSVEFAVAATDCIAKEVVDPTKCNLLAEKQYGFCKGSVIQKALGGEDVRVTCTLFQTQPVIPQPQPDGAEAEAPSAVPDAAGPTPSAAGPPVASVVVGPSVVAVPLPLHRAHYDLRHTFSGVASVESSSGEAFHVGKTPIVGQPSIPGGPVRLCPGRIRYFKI


What follows are molecules tested against T1, asialofetuin (assay: ELISA; competitive solid-phase assay (SPA): asialofetuin 10 ug/ml coated on 96-well plates in sodium carbonate buffer pH 9.6; galectin (20-40 ug/ml) in PBS-BSA 0.3% preincubated with serial dilutions of oligosaccharide inhibitors (2 h, 37 C); bound galectin detected with anti-galectin antibodies and HRP; both purified).

| Molecule | binding |
| --- | --- |
| human galectin-7 (from UniProt P47929 1-136) | binds |
| human galectin-1 (from UniProt P09382 1-135) | binds |
| full-length human galectin-4 (protein, UniProt P56470 1-323) MAYVPAPGYQPTYNPTLPYYQPIPGGLNVGMSVYIQGVASEHMKRFFVNFVVGQDPGSDVAFHFNPRFDGWDKVVFNTLQGGKWGSEERKRSMPFKKGAAFELVFIVLAEHYKVVVNGNPFYEYGHRLPLQMVTHLQVDGDLQLQSINFIGGQPLRPQGPPMMPPYPGPGHCHQQLNSLPTMEGPPTFNPPVPYFGRLQGGLTARRTIIIKGYVPPTGKSFAINFKVGSSGDIALHINPRMGNGTVVRNSLLNGSWGSEEKKITHNPFGPGQFFDLSIRCGLDRFKVYANGQHLFDFAHRLSAFQRVDTLEIQGDVTLSYVQI | binds |

Second part, the molecule after the results:

| binding | Molecule |
| --- | --- |
| binds | human galectin-3 (from UniProt P17931 1-250) |
| binds | full-length human galectin-12 (protein, UniProt Q96DT0 1-336) MSQPSGGRAPGTRIYSWSCPTVMSPGEKLDPIPDSFILQPPVFHPVVPYVTTIFGGLHAGKMVMLQGVVPLDAHRFQVDFQCGCSLCPRPDIAFHFNPRFHTTKPHVICNTLHGGRWQREARWPHLALRRGSSFLILFLFGNEEVKVSVNGQHFLHFRYRLPLSHVDTLGIFGDILVEAVGFLNINPFVEGSREYPAGHPFLLMSPRLEVPCSHALPQGLSPGQVIIVRGLVLQEPKHFTVSLRDQAAHAPVTLRASFADRTLAWISRWGQKKLISAPFLFYPQRFFEVLLLFQEGGLKLALNGQGLGATSMNQQALEQLRELRISGSVQLYCVHS |
